The text below walks through data of PubChem BioAssay AID248 (DTP/NCI, 2004).

The subject of the experiment is L1210 leukemia ip in BDF1 mice, survival T/C. The experiment can be described thus: NCI In Vivo Anticancer Drug Screen. Data for tumor model L1210 Leukemia (intraperitoneal) in B6D2F1 (BDF1) mice. As to conditions: T/C endpoint: mean survival time, higher T/C = longer survival.
The mark [1] stands for this setting: dose: 200.0 mg/kg/injection, schedule: Q04DX003 (ip), vehicle: saline.
Setting [2] is: dose: 400.0 mg/kg/injection, schedule: Q04DX003 (ip), vehicle: saline.
Setting [3] is: dose: 100.0 mg/kg/injection, schedule: Q04DX002 (ip), vehicle: saline.
Setting [4] is: dose: 200.0 mg/kg/injection, schedule: Q04DX002 (ip), vehicle: saline.
[5] abbreviates: dose: 400.0 mg/kg/injection, schedule: Q04DX002 (ip), vehicle: saline.
The mark [6] stands for this setting: dose: 200.0 mg/kg/injection, schedule: Q01DX001 (ip), vehicle: saline.
[7] abbreviates: dose: 400.0 mg/kg/injection, schedule: Q04DX003 (ip), vehicle: Klucel (hydroxypropylcellulose) (HPC).
[8] abbreviates: dose: 100.0 mg/kg/injection, schedule: Q04DX003 (ip), vehicle: Klucel (hydroxypropylcellulose) (HPC).
[9] abbreviates: dose: 200.0 mg/kg/injection, schedule: Q04DX003 (ip), vehicle: Klucel (hydroxypropylcellulose) (HPC).

Each structure is given as a SMILES string. The list is a part of this screen's results and no random one: it gathers tests that were run many times, whatever their T/C, doses with no T/C, and many T/C values between a quarter and a half above the control. Further doses and runs are listed elsewhere. T/C gives the treated animals as a percentage of the vehicle group. Some entries give survivors of the animals treated and no T/C: the source holds a T/C of zero for them, seemingly a mark for toxic or unscored doses. Some doses without a T/C left all or most animals alive at the check, yet need not have been tolerated: survival well below the control is almost never listed, so the zero probably covers shortened survival too. Survivors were counted at the toxicity check, usually on the fifth day, unless a day is given; later deaths do not show. Schedule codes are those of the source, read here as Q, the interval in days (D) or hours (H), X, the number of doses. Some schedule codes hold Z or #, which are not explained here. For survival time, this PubChem deposit counts one and a half times the control or more as active, and values a quarter to a half above the control carry no call in these data; other NCI protocols may use other cut-offs. Some entries were tested several times; the values are given in rising order.

On to `O=C(Nc1ccccc1C(F)(F)F)c1cccc(C(=O)Nc2ccccc2C(F)(F)F)c1`, for which the survivor count runs as follows: (dose: 200.0 mg/kg/injection, schedule: Q01DX009 (ip), vehicle: saline with Tween-80) 6 of 6; (dose: 200.0 mg/kg/injection, schedule: Q04DX003 (ip), vehicle: saline with Tween-80) 6 of 6; (dose: 400.0 mg/kg/injection, schedule: Q04DX003 (ip), vehicle: saline with Tween-80) 6 of 6.

As for `CCN(CC)CC(=O)NCC(CCN1CCCCC1)(CCN1CCCCC1)c1cccc2ccccc12`, the survivor count (dose: 100.0 mg/kg/injection, schedule: Q01DX009 (ip), vehicle: saline) is 6 of 6; the survivor count under setting [1] is 1 of 6; the survivor count under setting [2] is 0 of 6.

For the compound `CN(C)c1ncnc2[nH]cc([N+](=O)[O-])c12`, under “dose: 400.0 mg/kg/injection, schedule: Q01DX001 (ip), vehicle: carboxymethylcellulose (CMC)”, the survivor count is reported as 2 of 4.

For the compound `Cc1c2oc3c(C)ccc(C(=O)NCCC(C)C)c3nc-2c(C(=O)NCCC(C)C)c(N)c1=O`, the survivor count reads like this: (dose: 20.0 mg/kg/injection, schedule: Q01DX001 (ip), vehicle: carboxymethylcellulose (CMC)) 6 of 6; (dose: 40.0 mg/kg/injection, schedule: Q01DX001 (ip), vehicle: carboxymethylcellulose (CMC)) 6 of 6; (dose: 75.0 mg/kg/injection, schedule: Q01DX001 (ip), vehicle: other) 6 of 6; (dose: 150.0 mg/kg/injection, schedule: Q01DX001 (ip), vehicle: other) 4 of 6; (dose: 300.0 mg/kg/injection, schedule: Q01DX001 (ip), vehicle: other) 2 of 6.

For the compound `N=C(N)SCc1ccc(Cl)cc1`, the survivor count under setting [3] is given as 2 of 3, the survivor count under setting [4] is listed as 0 of 3 and the survivor count under setting [5] is recorded as 0 of 3.

Turning to `CCN(CC)CC(=O)NCC(CCCN(C)C)(CCCN(C)C)c1cccc2ccccc12`, the survivor count under setting [3] is 3 of 3.

Regarding `C[P+]1(CCc2ccc(Cl)cc2)CC(Br)C(Br)C1` (stereo unspecified), the survivor count is 0 of 6 (dose: 200.0 mg/kg/injection, schedule: Q01DX001 (ip), vehicle: Klucel (hydroxypropylcellulose) (HPC)) and 0 of 6 (dose: 400.0 mg/kg/injection, schedule: Q01DX001 (ip), vehicle: Klucel (hydroxypropylcellulose) (HPC)).

Regarding `CC(=O)NC(CCSCc1c2ccccc2c(C)c2c1ccc1ccccc12)C(=O)O` (stereo unspecified), for the setting “dose: 100.0 mg/kg/injection, schedule: Q01DX009 (ip), vehicle: saline with Tween-80”, the survivor count was 6 of 6.

As for `C[N+](C)(C)CCC[N+](C)(C)CCN1C(=O)c2cccc3cccc(c23)C1=O`, the survivor count reads like this: (dose: 100.0 mg/kg/injection, schedule: Q01DX001 (ip), vehicle: saline) 0 of 6; under setting [6], 1 of 6.

Regarding `CCN(CC)CCNCc1ccccc1`, the survivor count reads like this: (dose: 150.0 mg/kg/injection, schedule: Q04DX003 (ip), vehicle: saline) 3 of 6; (dose: 300.0 mg/kg/injection, schedule: Q04DX003 (ip), vehicle: saline) 0 of 6.

`O=S(=O)(C=C(N1CCCCC1)N1CCCCC1)Cc1ccccc1`: the survivor count is 3 of 6 (dose: 50.0 mg/kg/injection, schedule: Q04DX003 (ip), vehicle: saline); 3 of 6 (dose: 55.0 mg/kg/injection, schedule: Q01DX009 (ip), vehicle: acetone); 0 of 6 (dose: 80.0 mg/kg/injection, schedule: Q01DX009 (ip), vehicle: acetone); 0 of 6 (dose: 100.0 mg/kg/injection, schedule: Q01DX001 (ip), vehicle: acetone); 0 of 6 (dose: 200.0 mg/kg/injection, schedule: Q01DX001 (ip), vehicle: acetone); 0 of 6 (dose: 400.0 mg/kg/injection, schedule: Q01DX001 (ip), vehicle: acetone).

Regarding `CCOC(=O)/C(C#N)=C\c1ccccc1Cl`, the survivor count under setting [7] is 3 of 6.

As for `CNC(=S)n1ncnc1N`, the survivor count was 1 of 6 (dose: 150.0 mg/kg/injection, schedule: Q01DX009 (ip), vehicle: saline); 0 of 6 under setting [1]; 0 of 6 (dose: 225.0 mg/kg/injection, schedule: Q01DX009 (ip), vehicle: saline); 0 of 6 (dose: 335.0 mg/kg/injection, schedule: Q01DX009 (ip), vehicle: saline); 0 of 6 under setting [2].

Take `Cc1cc(N(CCOS(C)(=O)=O)CCOS(C)(=O)=O)ccc1C=Nc1cccc(C(=O)O)c1`: the survivor count is, setting by setting: (dose: 80.0 mg/kg/injection, schedule: Q04DX003 (ip), vehicle: Klucel (hydroxypropylcellulose) (HPC)) 6 of 6; under setting [8], 6 of 6; under setting [9], 3 of 6; under setting [7], 0 of 6.

For the compound `CCCCCCCCCCCCSCCOC(=O)C1C2CCC(O2)C1C(=O)O` (stereo unspecified), the survivor count reads like this: under setting [8], 0 of 6; under setting [9], 0 of 6; under setting [7], 0 of 6.

Regarding `Cn1c(=O)c2[nH]c(C3CC=CCC3)nc2n(C)c1=O` (stereo unspecified), the survivor count (dose: 200.0 mg/kg/injection, schedule: Q01DX001 (ip), vehicle: other) is listed as 4 of 4.

Take `O=C1OC(c2ccccc2)=N/C1=C\c1ccccc1Cl`: the survivor count (dose: 400.0 mg/kg/injection, schedule: Q04DX002 (ip), vehicle: saline with Tween-80) was 3 of 3.

Take `FC(F)(F)c1ccc2c(c1)N(CCCN1CCN(CCOCCCl)CC1)c1ccccc1S2`: the survivor count (dose: 6.25 mg/kg/injection, schedule: Q01DX009 (ip), vehicle: saline) is 6 of 6; the survivor count (dose: 12.5 mg/kg/injection, schedule: Q01DX009 (ip), vehicle: saline) is 6 of 6; the survivor count (dose: 25.0 mg/kg/injection, schedule: Q01DX009 (ip), vehicle: saline) was 6 of 6; the survivor count (dose: 50.0 mg/kg/injection, schedule: Q01DX009 (ip), vehicle: saline) is on record as 5 of 6; the survivor count (dose: 100.0 mg/kg/injection, schedule: Q04DX003 (ip), vehicle: saline) is given as 3 of 6.

Regarding `O=c1sc2ccccc2n1-c1ccccc1`, the survivor count under setting [7] was 6 of 6.

In the case of `CC(=O)NCc1cccc([N+](=O)[O-])c1`, the T/C is, setting by setting: (dose: 50.0 mg/kg/injection, schedule: Q01DX005 (ip), vehicle: saline) 128 % of control; (dose: 200.0 mg/kg/injection, schedule: Q01DX005 (ip), vehicle: saline) 125 % of control. For the same compound, where the note is “dose: 400.0 mg/kg/injection, schedule: Q01DX005 (ip), vehicle: saline”, the survivor count is recorded as 1 of 4.

Consider `CC1=CC(=O)C=CC1=Nc1cc(Cl)c(O)c(Cl)c1`, for which the survivor count is recorded as 0 of 4 under setting [6] and 0 of 4 (dose: 400.0 mg/kg/injection, schedule: Q01DX001 (ip), vehicle: saline).

Consider `Cc1cccc[n+]1CC(=O)c1ccccc1`, for which the survivor count is reported as 0 of 3 under setting [1] and 0 of 3 under setting [2].

As to `CCCCCC#CC(=O)OCC`, under “dose: 400.0 mg/kg/injection, schedule: Q01DX009 (ip), vehicle: saline with Tween-80”, the survivor count is 0 of 6.

Regarding `N=C(N)N=Nc1ccc(NN=C(N)N)cc1`, the T/C reads like this: (dose: 15.0 mg/kg/injection, schedule: Q01DX Z (ip), vehicle: saline) 127 and 138 % of control; (dose: 30.0 mg/kg/injection, schedule: Q01DX Z (ip), vehicle: saline) 126 % of control. In addition, the survivor count (dose: 120.0 mg/kg/injection, schedule: Q01DX Z (ip), vehicle: saline) was 0 of 6.

Turning to `CC(C)OP(=O)(N1CC1(C)C)N1CC1(C)C` (stereo unspecified), the survivor count reads like this: under setting [3], 2 of 3; under setting [4], 0 of 3; under setting [5], 0 of 3.

Take `c1ccc(CNNCc2ccccc2)cc1`: the survivor count reads like this: (dose: 300.0 mg/kg/injection, schedule: Q01DX009 (ip), vehicle: Klucel (hydroxypropylcellulose) (HPC)) 3 of 6; under setting [7], 5 of 6.
